# Some of the results follow. These are further read-outs of the screen, such as a control signal, another cell line or another target. No call is given for them. Compounds called inactive in the main read-out are mostly missing here. Words in brackets tell the shape of the fitted curve; partial curves, single points and poor fits give uncertain potencies.
# Experiment: qHTS Assay for Modulators of Lamin A Splicing
# Details: HeLa LMNA splicing GFP/RFP minigene ratio, 48 h
# Procedure, shortened: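 Read-out is the ratio of GFP to DsRed2 object intensity, acquired by 488 nm laser-scanning cytometry on HeLa lamin A-EGFP minigene reporter cells. Compound incubation 48 hrs at 37 °C in Opti-MEM with 2% FBS; DMSO 0.5% final.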
# [1] = measured here: RFP viability control channel
# [2] = measured here: GFP splicing reporter channel
smiles,measurement,setting,value
CCOC(=O)c1c(NC(=O)C(C)NCc2ccco2)sc2c1CCC(C)C2 (stereo not drawn),AC50,[1],"12.6 µM [rising, single point]"
CC(C)C(=O)N1CCN(c2ccc(NC(=O)c3ccc(Br)o3)cc2)CC1,AC50,[1],"35.5 µM [rising, single point]"
CC(NC(=S)Nc1ccc([N+](=O)[O-])cc1)c1ccncc1 (stereo not drawn),AC50,[2],"0.141 µM [rising, full curve, poor fit]"
CC(NC(=O)CCc1nnc(CCCc2ccccc2)o1)c1ccccc1 (stereo not drawn),AC50,[2],"0.00891 µM [falling, full curve, poor fit]"
same,AC50,[1],"14.1 µM [falling, partial curve]"
CCCC(=O)Nc1ncnc2c1ncn2[C@@H]1O[C@H]2COP(=O)(O)O[C@@H]2[C@@H]1OC(=O)CCC,AC50,[2],"0.316 µM [falling, single point]"
COc1ccc2nc(SCCN(C)C)[nH]c2c1,AC50,[1],"3.98 µM [falling, partial curve, poor fit]"
CCOC(=O)Cc1c(C)c2c(O)cc(O)cc2oc1=O,AC50,[1],"25.1 µM [rising, single point]"
CCN1CCN(S(=O)(=O)c2ccc(S(=O)(=O)N(CC)Cc3ccccc3)cc2)CC1,AC50,[1],"12.6 µM [rising, partial curve, poor fit]"
CCCc1cc(=O)n2[nH]c(NCc3ccc(Cl)cc3Cl)nc2n1,AC50,[1],"31.6 µM [falling, single point]"
O=C(Nc1ccc(N2CCN(C(=O)c3ccco3)CC2)c(Cl)c1)c1cccs1,AC50,[2],"20 µM [rising, partial curve, poor fit]"
same,AC50,[1],"17.8 µM [rising, single point]"
CC(C)(C)c1ccc(S(=O)(=O)Nc2ccc(Cc3ccncc3)cc2)cc1,AC50,[1],"3.16 µM [rising, full curve]"
CSC(=S)N/N=C/c1ccc(N(C)C)cc1,AC50,[1],"35.5 µM [falling, single point]"
COCCN1C(=O)C(=O)/C(=C(/O)c2ccc(C)cc2)C1c1ccccn1 (stereo not drawn),AC50,[2],"0.01 µM [rising, full curve, poor fit]"
CCCCCn1c(CN2CCN(c3cccc(Cl)c3)CC2)nc2c1c(=O)n(C)c(=O)n2C,AC50,[2],"11.2 µM [rising, partial curve, poor fit]"
same,AC50,[1],"10 µM [rising, partial curve]"
Cc1ccc(CSCCNC(=O)c2cccc([N+](=O)[O-])c2)cc1,AC50,[2],"12.6 µM [rising, single point]"
same,AC50,[1],"35.5 µM [rising, single point]"
O=C(CSc1nn(-c2ccc(F)cc2)c(=S)s1)NC(=O)NCc1ccco1,AC50,[2],"35.5 µM [rising, single point]"
same,AC50,[1],"35.5 µM [rising, single point]"
CNC(=O)COC(=O)c1ccccc1C(=O)c1ccc(Cl)c([N+](=O)[O-])c1,AC50,[1],"35.5 µM [falling, partial curve, poor fit]"
CCn1c(SCC(=O)Nc2ccc3c(c2)c2ccccc2n3CC)nnc1-c1cnccn1,AC50,[2],"12.6 µM [rising, single point]"
same,AC50,[1],"12.6 µM [rising, single point]"
Cc1ccc(C2(C)NC(=O)N(CC(=O)c3ccc(Cl)s3)C2=O)cc1 (stereo not drawn),AC50,[2],"5.62 µM [rising, partial curve]"
same,AC50,[1],"8.91 µM [rising, partial curve, poor fit]"
O=C(Nc1cnn(Cc2ccc(Cl)cc2Cl)c1)c1noc2c1CCCC2,AC50,[2],"10 µM [rising, partial curve, poor fit]"
same,AC50,[1],"15.8 µM [rising, partial curve]"
Cc1c(Br)c([N+](=O)[O-])nn1CCCC(=O)Nc1sc2c(c1C#N)CCC2,AC50,[1],"5.62 µM [rising, partial curve, poor fit]"
CCn1ncc(Br)c1C(=O)Nc1sc2c(c1C(N)=O)CCC2,AC50,[2],"0.794 µM [rising, partial curve]"
CC1CN(C)C(c2ccccc2)C(C)C12NC(=O)NC2=O (stereo not drawn),AC50,[2],"12.6 µM [rising, single point]"
Cc1cccc(CN2CCN(CC(=O)NCCCN3CCN(c4ccc(F)cc4)CC3)C2=O)c1,AC50,[1],"12.6 µM [rising, partial curve]"
COc1ccc(-c2ccc(SCC(=O)c3cccs3)nn2)cc1,AC50,[1],"35.5 µM [rising, single point]"
Cc1c(Cc2ccccc2)c(=O)oc2c(CN(C)C)c(O)c(Cl)cc12,AC50,[1],"0.02 µM [falling, full curve, poor fit]"
Oc1ccc(N=Nc2n[nH]c(-c3ccc(Cl)cc3)n2)cc1,AC50,[2],"3.16 µM [rising, partial curve]"
CCCCCC(=O)NC(=S)NNC(=O)c1ccc([N+](=O)[O-])cc1,AC50,[1],"12.6 µM [rising, partial curve]"
Cc1sc2nc(C(C)C)nc(SCC(=O)N3c4ccccc4CC3C)c2c1C (stereo not drawn),AC50,[1],"35.5 µM [rising, partial curve, poor fit]"
COc1cc(NC(=S)NCCC(c2ccccc2)c2ccccc2)c(OC)cc1Cl,AC50,[1],"31.6 µM [rising, single point]"
CCNc1nc(SCCOc2ccc(Cl)cc2Cl)nc(N(C)C)n1,AC50,[2],"17.8 µM [falling, single point]"
O=C(Cc1ccc(F)cc1)c1ccc(O)cc1O,AC50,[1],"11.2 µM [rising, partial curve]"
CCOC(=O)Cc1csc(NC(=O)c2csc(C)c2)n1,AC50,[1],"22.4 µM [rising, single point]"
Cc1cccc(NC(=O)CSc2nc3c([nH]c4ccccc43)c(=O)n2-c2cc(C)cc(C)c2)c1,AC50,[2],"20 µM [falling, partial curve, poor fit]"
same,AC50,[1],"14.1 µM [falling, partial curve, poor fit]"
Cc1ccc(/C=C/C(=O)c2ccccc(=O)c2O)cc1C,AC50,[1],"28.2 µM [rising, single point]"
O=C1NC2(CCC3(CC2)OCCO3)NN1c1ccccc1,AC50,[2],"0.0562 µM [rising, full curve, poor fit]"
COc1ccccc1C(=O)Nc1cccc(OCc2cc(=O)n3ccccc3n2)c1,AC50,[1],"7.08 µM [falling, full curve, poor fit]"
Cc1cccc(C)c1NC(=O)CSc1nnc(Cn2nnc(-c3ccccc3)n2)n1-c1ccccc1,AC50,[1],"12.6 µM [rising, single point]"
COC(=O)c1ccc(NC(=O)c2cnn(-c3ccc(Cl)cc3)c2C2CCN(C(=O)OC(C)(C)C)CC2)cc1,AC50,[2],"35.5 µM [falling, partial curve, poor fit]"
C=CCNC(=O)c1ccc(-n2cccc2)cc1,AC50,[1],"0.141 µM [falling, full curve, poor fit]"
CCCCNC(=S)N(C)/N=C/c1ccc(OCC(=O)Nc2ccc(OC)cc2)c(OC)c1,AC50,[1],"35.5 µM [rising, single point]"
Cc1cc(C)c(NC(=O)c2cc(C)nc3c2c(C)nn3-c2cccc(F)c2)c(C)c1,AC50,[1],"3.16 µM [rising, full curve, poor fit]"
CC1CCc2c(sc(NC(=O)CN3CCN(C(=O)c4ccco4)CC3)c2C#N)C1 (stereo not drawn),AC50,[2],"10 µM [rising, partial curve, poor fit]"
same,AC50,[1],"17.8 µM [rising, single point]"
COc1cccc(C(=O)N2N=C(c3ccccc3)CC2(O)C(F)(F)F)c1 (stereo not drawn),AC50,[2],"12.6 µM [rising, partial curve, poor fit]"
same,AC50,[1],"35.5 µM [rising, single point]"
CC(C)(C)C1CCc2onc(C(=O)Nc3ccc(F)cc3F)c2C1 (stereo not drawn),AC50,[2],"25.1 µM [rising, single point]"
same,AC50,[1],"28.2 µM [rising, single point]"
O=C(NCC1CCCO1)C(c1ccccn1)N(Cc1ccccc1Cl)C(=O)CN1C(=O)c2ccccc2S1(=O)=O (stereo not drawn),AC50,[2],"0.00501 µM [rising, full curve, poor fit]"
CCn1c(Cn2nnc(-c3ccccc3)n2)nnc1SCC(=O)Nc1cccc(C)c1C,AC50,[2],"25.1 µM [rising, single point]"
same,AC50,[1],"20 µM [rising, single point]"
Oc1ccc(Br)cc1-c1cc(-c2ccccc2)n[nH]1,AC50,[2],"15.8 µM [rising, single point]"
same,AC50,[1],"22.4 µM [rising, partial curve]"
CCCCOc1ccccc1C1NC(=O)NC(C)=C1C(=O)OCCOCC (stereo not drawn),AC50,[2],"12.6 µM [rising, single point]"
same,AC50,[1],"11.2 µM [rising, single point]"
CCOC(=O)N1CCN(C(=O)c2oc3ccc(S(=O)(=O)N4CCOCC4)cc3c2C)CC1,AC50,[1],"15.8 µM [rising, single point]"
CC1(C)Cc2c(sc3nc(-c4ccccc4Cl)n(N)c(=O)c23)CO1,AC50,[1],"17.8 µM [rising, single point]"
CC(=O)Nc1ccccc1C(=O)C(=O)Nc1ccc(C(=O)N2CCOCC2)cc1,AC50,[2],"0.0708 µM [rising, full curve, poor fit]"
same,AC50,[1],"0.0794 µM [rising, full curve, poor fit]"
COc1cccc2sc(Nc3nnc(-c4ccc(F)cc4)o3)nc12,AC50,[1],"15.8 µM [falling, single point]"
CCn1nccc1C(=O)Nc1ccc(S(=O)(=O)NC23CC4CC(CC(C4)C2)C3)cc1,AC50,[1],"15.8 µM [rising, partial curve]"
O=C(c1ccc2c(c1)OCO2)[C@@H]1[C@@H]2C(=O)N(C3CCCCC3)C(=O)[C@@H]2C2c3ccccc3C=CN21 (stereo partly drawn),AC50,[1],"2.82 µM [rising, partial curve, poor fit]"
COc1ccccc1C(=O)Nc1nnc(SCc2cc(=O)c3ccccc3[nH]2)s1,AC50,[2],"0.0251 µM [rising, full curve, poor fit]"
same,AC50,[1],"0.0891 µM [rising, full curve, poor fit]"

# A portion taken from the entries so far, as a working copy:
smiles,measurement,setting,value
Oc1ccc(Br)cc1-c1cc(-c2ccccc2)n[nH]1,AC50,[2],"15.8 µM [rising, single point]"
same,AC50,[1],"22.4 µM [rising, partial curve]"
CCCCOc1ccccc1C1NC(=O)NC(C)=C1C(=O)OCCOCC (stereo not drawn),AC50,[2],"12.6 µM [rising, single point]"

# — PubChem BioAssay AID1487 (National Center for Advancing Translational Sciences (NCATS), 2009)
